Measured values from US11866458B2, “Panaxadiol glycoside derivative and preparation method and application thereof” (SUZHOU JI ER BIOLOGICAL MEDICINE CO., LTD., priority 2018, dated 2024).
At least one compound was matched to its structure with a doubt left.

Key:
[1] = test system: mouse asthma model induced by OVA; test: Asthma induced by ovalbumin in Balb/c mice: IgE level in serum by ELISA; assay type: in vivo; settings: 0.6 mg/kg
[2] = test system: inflammatory cells in bronchoalveolar lavage fluid of mice; test: Determination of inflammatory cells in bronchoalveolar lavage fluid of mice (OVA asthma model); assay type: in vivo, BALB/C mice; set-up: unit not given here; settings: 2 mg/kg, oral
Method: 144 6-week-old BALB/C mice (18-20 g) were divided into 24 groups: control group, placebo group, dexamethasone group (3 mg/kg) and the drug groups. There were 6 in each group. The control group was given normal saline without any treatment. The other groups were sensitized by intraperitoneal injection of OVA 20 μg and aluminum hydroxide 200 μL PBC (2 mg, prepared into emulsion). […] On day 21, 22 and 23, the therapeutic agent (i.e. 3 mg/kg dexamethasone in the positive control group and oral administration in the drug group) was given orally. From day 17 to 23, PBS was given to the control group and placebo group respectively, PBS (without OVA) was given to the control group. On day 0 and day 14, the normal saline was nebulized for 30 minutes to remove the aluminum hydroxide on day 21, 22 and 23 See in Table 2.

Compound: CC(=O)OCC(=O)[C@@]1(O)[C@H](C)C[C@H]2[C@@H]3CCC4=CC(=O)C=C[C@]4(C)[C@@]3(F)[C@@H](O)C[C@@]21C [Dexamethasone acetate tablets, Dexamethasone acetate]
- content of IgE in mice serum (conclusion in words) [1]: significantly reduce

Compound: CC(C)=CCC[C@](C)(O[C@@H]1O[C@H](CO)[C@@H](O)[C@H](O)[C@H]1O)[C@H]1CC[C@]2(C)[C@@H]1[C@H](O)C[C@@H]1[C@@]3(C)CC[C@H](O)C(C)(C)[C@@H]3CC[C@]12C [CK, ginsenoside compound K, reference compound]
- Total inflammatory cells in bronchoalveolar lavage fluid [2]: 52.29/34.92
